The results in this text go back to publication PMC7819943, “Rice protein-binding microarrays: a tool to detect cis-acting elements near promoter regions in rice”.

Sequences of proteins named here, by UniProt entry; tags and fusion partners are left off.
UniProt Q0JBA9, entry or part of it: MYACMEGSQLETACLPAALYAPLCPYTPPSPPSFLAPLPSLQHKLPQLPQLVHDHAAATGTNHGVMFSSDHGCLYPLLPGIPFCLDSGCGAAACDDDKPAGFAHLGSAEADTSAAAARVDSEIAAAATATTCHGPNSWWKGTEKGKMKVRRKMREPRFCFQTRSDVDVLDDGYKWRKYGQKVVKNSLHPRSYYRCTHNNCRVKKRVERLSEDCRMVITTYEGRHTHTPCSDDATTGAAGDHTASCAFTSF

Some of the results follow.

The assay has as its target OsWRKY34 (Oryza sativa, UniProt Q0JBA9 1-250). In words: protein-binding microarray (RPBM); PBS, 2% BSA, 51.3 ng/ul salmon testes DNA, 50 uM zinc acetate, 200 nM TF, 25 C, 1 h; high values mean tight binding. Particulars: protein: recombinant; tags: N-terminal polyhistidine and DsRed monomer fusion (pET32a); label: CyDye5-dUTP incorporated in the synthesized complementary strand; 3' TTTTT single-stranded linker to array surface; dsDNA, one strand shown. An outline of the steps: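 Polyhistidine-tagged DsRed fusions of transcription factors, joined at the N-terminus, were expressed in E. coli BL21-CodonPlus and isolated on Ni–NTA. They were incubated at 200 nM for 1 h at 25 °C on a custom Agilent array, double-stranded and BSA-blocked, in PBS with 2% BSA, salmon testes DNA and 50 µM zinc acetate. The binding signal is per-feature fluorescence intensity (arbitrary units) read on an Axon 4000B scanner after washing.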
As to “GTTGTGACCACGAGCTGTTCTCTCTCCCATTCCTCATTTCCGGAGTCACCTAGTGCAG”, the binding signal was 13400 fluorescence intensity (a.u.).
Take “CCGGTGTCATCAATCCAGGCGTCGGGGAGGTCGGGGTCAGCGGAGTCACCTAGTGCAG”: the binding signal is 9490 fluorescence intensity (a.u.).
For “TTAGTCTATGTTTAATACTTCTAATTAGTGTCCAAACATTCGGAGTCACCTAGTGCAG” the value was 8500 fluorescence intensity (a.u.).
In the case of “AGCAGTTTATTTGTTTCCTGAACATGATTGGGGATTAGACCGGAGTCACCTAGTGCAG” it was 9580 fluorescence intensity (a.u.).
“TTGTCTTTTTTGGTGCTCTATCTGTATCAAGTTTGTTATGCGGAGTCACCTAGTGCAG”: the binding signal is 8090 fluorescence intensity (a.u.).
For “TAGAATTACATCTGATATACCGGTCTTACGCTCTTAGATTCGGAGTCACCTAGTGCAG” the value was 8860 fluorescence intensity (a.u.).
In the case of “GCTTATGTGTTCTGGAGCGACCAGGTTCAATGAACCTTCTCGGAGTCACCTAGTGCAG” it was 8650 fluorescence intensity (a.u.); in that of “TTCTCACGATTTTTTTCCCCTGTAAATTTCCCGGCGGCTTCGGAGTCACCTAGTGCAG”, 9500 fluorescence intensity (a.u.); in that of “CAGCCCGATCCAATCCGTCTCTGGTCTCTCCGGTACAAAACGGAGTCACCTAGTGCAG”, 8050 fluorescence intensity (a.u.).
In the case of “CCATAATGATTTTACTGTTACTGGGATGGCAATATCTTTCCGGAGTCACCTAGTGCAG” it was 9820 fluorescence intensity (a.u.); in that of “CCTTTACCTTTTGTTTGTTTTAACATCTCCTAAATTTTACCGGAGTCACCTAGTGCAG”, 10800 fluorescence intensity (a.u.).
For “AAGCTATGCTTCAAGACCATTCATTAGTTTCTTCTTCTTCCGGAGTCACCTAGTGCAG”, the binding signal is 9820 fluorescence intensity (a.u.).
In the case of “GACCTCTTGTGAAACTTTCCTTTGTTGAGGGTATCATGTGCGGAGTCACCTAGTGCAG” it was 10800 fluorescence intensity (a.u.).
In the case of “ACACCATCGCCGCTCGGTCCGCCCCGCTGCCTGATGCCATCGGAGTCACCTAGTGCAG” it was 9150 fluorescence intensity (a.u.); in that of “CCTACCGCAACTTGGCCCGGACAGGCACGCACACGCACATCGGAGTCACCTAGTGCAG”, 10400 fluorescence intensity (a.u.).
In the case of “TCACAGTTGCTGTCACATGAATACTTTTAACTTTTCTTGCCGGAGTCACCTAGTGCAG” it was 8780 fluorescence intensity (a.u.); in that of “TAATTAACCCTATCCCCATCCCAATCCCCACCTCTCCATCCGGAGTCACCTAGTGCAG”, 8150 fluorescence intensity (a.u.).
Take “AATTTGACTCCCTCAGCAGTTTTGGAGGACGGTTTCACGGCGGAGTCACCTAGTGCAG”: the binding signal was 8700 fluorescence intensity (a.u.).
In the case of “GGATTCTTCGTCTCCACCACCGCCCTCGACGTCAGATCAGCGGAGTCACCTAGTGCAG” it was 9660 fluorescence intensity (a.u.); in that of “AACTCGTACTCGGTTTGTAGCCCATCTCCGACTCGGATTACGGAGTCACCTAGTGCAG”, 9930 fluorescence intensity (a.u.); in that of “CGTGTCTCGGCCACAGCCAGTCGTTTACCGCACGTTCACACGGAGTCACCTAGTGCAG”, 11100 fluorescence intensity (a.u.).
For “CGGGCGGGTCAAGGTCTCCTCCTCTCTCGTCGGCGACCTCCGGAGTCACCTAGTGCAG” the value was 10900 fluorescence intensity (a.u.).
On to “TGAGCCTCTCGTGGCCCTTTTTCTTTTCTTTTTTAAAATTCGGAGTCACCTAGTGCAG”, for which the binding signal was 10000 fluorescence intensity (a.u.).
In the case of “GACTGACATTAGGCCCCACATCTCCTCCGGCCCCACACGTCGGAGTCACCTAGTGCAG” it was 10400 fluorescence intensity (a.u.); in that of “CCATTAACCAACCTCGCGTCATCTCTCCCATCTCCCATATCGGAGTCACCTAGTGCAG”, 8450 fluorescence intensity (a.u.).
On to “CACCCACACACCGACATCGCCAACACACAAGCCCAGGAAACGGAGTCACCTAGTGCAG”, for which the binding signal was 8920 fluorescence intensity (a.u.).
In the case of “TGTCAGCCTCGTCCGGCTTCATCCCGTTGCGTCCCATTTTCGGAGTCACCTAGTGCAG” it was 17600 fluorescence intensity (a.u.).
Turning to “GTGAGGGTGTGGTTACAGTGGGTTGGTTTTTTTTCTCCCCCGGAGTCACCTAGTGCAG”, the binding signal is 11800 fluorescence intensity (a.u.).
With “GTCCTTTTGCAGTGTTCAATAATTGCATGCCACCGAAATTCGGAGTCACCTAGTGCAG”, the binding signal is 8040 fluorescence intensity (a.u.).
As for “ATTTTGAGTTTTTGATTGCAACGTTTGATCACTCGTCTTACGGAGTCACCTAGTGCAG”, the binding signal is 8270 fluorescence intensity (a.u.).
In the case of “GTTCCATTTGTTTGGAGATCGACATTATACTTTCAGTTTTCGGAGTCACCTAGTGCAG” it was 8720 fluorescence intensity (a.u.).
For “TCTGGTTCCATTTTCCACGCACAGGAGAGTGATTACTTTTCGGAGTCACCTAGTGCAG” the value was 11200 fluorescence intensity (a.u.).
In the case of “TACCGTTTCTATTTCCACCACCGTCGATTATCGTTACTGACGGAGTCACCTAGTGCAG” it was 9040 fluorescence intensity (a.u.); in that of “CTAGCTTAATCTTTCTTCGTTGTTCTACATCCTGCTAGTTCGGAGTCACCTAGTGCAG”, 9860 fluorescence intensity (a.u.).
With “GACTCGTTAACCACATGTTTTGCACAATGTCACAAGCCATCGGAGTCACCTAGTGCAG”, the binding signal is 8940 fluorescence intensity (a.u.).
Take “TACCCTTATACCCTTTTTTTTTGTTATATCAATATATAGACGGAGTCACCTAGTGCAG”: the binding signal was 8380 fluorescence intensity (a.u.).
For “TTCTCCCTGGAGTACTGGATTCACCCATCCACCTCGTCGACGGAGTCACCTAGTGCAG” the value was 8490 fluorescence intensity (a.u.); for “CCTCACTCTCGTGGGCTCACCACCTCACCTCGCTATAAGTCGGAGTCACCTAGTGCAG”, 10200 fluorescence intensity (a.u.).
For “CATAACTCCTGTTTTAACCCGCCGCTGATCGCGAGAGTCCCGGAGTCACCTAGTGCAG”, the binding signal was 9300 fluorescence intensity (a.u.).
For “ATGGTGGCCGGCCGGGTGAGGAAGGTGGTGGTGGCGTCGACGGAGTCACCTAGTGCAG” the value was 8720 fluorescence intensity (a.u.).
In the case of “ATCTCTTATACCACTGTCTAGGTGACTGCTTCAACCCATACGGAGTCACCTAGTGCAG” it was 8110 fluorescence intensity (a.u.); in that of “TCTTTGGCTTCTCGTCTACATCGCGTCTAGCTTATAGATACGGAGTCACCTAGTGCAG”, 10500 fluorescence intensity (a.u.); in that of “GTTGAAGGGGAGCGGGGAGATCGGGGACGGGAGGGACGGCCGGAGTCACCTAGTGCAG”, 8210 fluorescence intensity (a.u.).
In the case of “CTGTTGTGCAGTCATCCTTCTCCCGGTCTATATCTTCACACGGAGTCACCTAGTGCAG” it was 8400 fluorescence intensity (a.u.); in that of “CTCTAATATAAGGGATTTTGACATTTTACTTACACTGTTTCGGAGTCACCTAGTGCAG”, 9280 fluorescence intensity (a.u.).
Turning to “CTTTTTGTTTTGGCCTTGACGTCGTGTTCACCGCCTCTACCGGAGTCACCTAGTGCAG”, the binding signal is 11800 fluorescence intensity (a.u.).
In the case of “GGTGTGAGGGTGCTCGTATTTACGGCTAATTATTTTTTTACGGAGTCACCTAGTGCAG” it was 10300 fluorescence intensity (a.u.).
For “TTTAAAAAAGTCAACGGCGTTGGGATGGAGGTAGTACCATCGGAGTCACCTAGTGCAG” the value was 10000 fluorescence intensity (a.u.).
In the case of “CCCTTCCCTCGCTGCAGCAAATACACTTCGCGAGATCCTCCGGAGTCACCTAGTGCAG” it was 8440 fluorescence intensity (a.u.); in that of “ATTGAGTCGTGTATCGCAGCTGTAGTATTTTTCCCCGACACGGAGTCACCTAGTGCAG”, 8630 fluorescence intensity (a.u.); in that of “GATTTGCACAGACATGTTTCCGTTTGTATTGTTCAGTTTTCGGAGTCACCTAGTGCAG”, 8500 fluorescence intensity (a.u.).
“GATGAGGCGGGGTGCGCGCACGGCAGTTTGGATGATTTTTCGGAGTCACCTAGTGCAG”: the binding signal was 8370 fluorescence intensity (a.u.).
In the case of “TTAAAAAACATTGTACCACAAGTAGCAACAAATTAATGCTCGGAGTCACCTAGTGCAG” it was 26900 fluorescence intensity (a.u.).
In the case of “GCTCCCATCCACACCCGCAACCACCTCGCTCGCTAAAAATCGGAGTCACCTAGTGCAG” it was 8370 fluorescence intensity (a.u.).
